# Assay results: the supplement of paper PMC12067093, “Discovery and optimisation of a covalent ligand for TRIM25 and its application to targeted protein ubiquitination” (Chemical Science, 2025)
# This is one part of the list.
# Compound: Cc1cc(ccc1-c1ccccc1)C(=O)N1CCCN(CC1)C(=O)CCl [compound 10]
# Assay: probe-labelled cysteine peptide fold change vs DMSO (competition) (log2 fold change); higher = less target engagement (more negative = stronger competition)
# Details: THP-1, incubation time: 4 h
# 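Note: competitive profiling in live THP-1 cells: cysteine peptides tagged with an iodoacetamide desthiobiotin (IA-DTB) probe, intensity after compound treatment relative to DMSO-treated cells.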
Target,probe-labelled cysteine peptide fold change (10 µM),probe-labelled cysteine peptide fold change (50 µM)
WDR11_Q9BZH6_107_IIVWDVAAGVAQCEIQEHAK (UniProt Q9BZH6),0.0242,0.291
WDR34_Q96EX3_529_EAEDLDCLAAEVAA (UniProt Q96EX3),-0.0979,0.196
WDR59_Q6PJI9_26_DSQATAMSVDCLGQHAVLSGR (UniProt Q6PJI9),-0.0263,0.187
WDR91_A4D1P6_596_LFDMQQHECAMSWR (UniProt A4D1P6),0.14,0.0812
WDFY3_Q8IZQ1_2094_SQGLSLDAVYHCLNR (UniProt Q8IZQ1),0.0981,-0.178
XPNPEP3_Q9NQH7_503_EMNDIEQICSQAS (UniProt Q9NQH7),-0.468,0.135
WDR18_Q9BV38_384_TEQLQAVLCSTMEK (UniProt Q9BV38),-0.0324,0.0157
WTAP_Q15007_90_EQEMQECTTQIQYLK (UniProt Q15007),0.0871,-0.102
XPC_Q01831_60_GCSHPGGSADGPAK (UniProt Q01831),0.136,-0.388
WDR81_Q562E7_76_RLPLGPCPR (UniProt Q562E7),-0.00872,0.132
WDFY3_Q8IZQ1_16_QEECSPQDNALGLMHLR (UniProt Q8IZQ1),-0.209,-0.373
WDR37_Q9Y2I8_329+330_TANLYDVETSELVHSLTGHDQELTHCCTHPTQR (UniProt Q9Y2I8),-0.208,-0.203
WDR74_Q6RFH5_316_SQLNCLLLSGR (UniProt Q6RFH5),-0.0136,-0.193
WDR26_Q9H7D7_238_CELTPLK (UniProt Q9H7D7),-0.149,-0.111
WDR92_Q96MX6_70_CGTFGATSLQQR (UniProt Q96MX6),-0.18,-0.264
WDR1_O75083_325_SIQCLTVHK (UniProt O75083),0.0015,-0.0707
WDR47_O94967_367_SLMLENTECHSIYEESPER (UniProt O94967),-0.285,-0.153
WDR11_Q9BZH6_1000_KCTDQLLLLGQTDR (UniProt Q9BZH6),-0.0686,-0.0351
WDR48_Q8TAF3_225_DGTQCLSGSSDGTIR (UniProt Q8TAF3),0.000326,-0.0528
WDR5_P61964_205_IWDTASGQCLK (UniProt P61964),0.16,0.0228
WDR43_Q15061_291_LAVVCR (UniProt Q15061),0.0146,0.0317

Target,probe-labelled cysteine peptide fold change (10 µM),probe-labelled cysteine peptide fold change (50 µM)
WDR59_Q6PJI9_677_SLGELYILNVNDIQETCQK (UniProt Q6PJI9),0.135,0.22
WDR76_Q9H967_596_VHSFGGEYLVSVCSINAMHPTR (UniProt Q9H967),-0.0527,0.102
XPO1_O14980_1070_QMSVPGIFNPHEIPEEMCD (UniProt O14980),-0.221,0.309
XPC_Q01831_790_KLDIDCVQAITGFDFHGGYSHPVTDGYIVCEEFK (UniProt Q01831),0.224,-0.446
XAB2_Q9HCS7_66_LLPCSYK (UniProt Q9HCS7),-0.68,0.0193
WDR62_O43379_539_VEAHDAEVLCLEYSKPETGLTLLASASR (UniProt O43379),0.093,-0.0307
WDR6_Q9NNW5_813_AEMHCFSIMVTPDPSTPSR (UniProt Q9NNW5),-0.184,-0.204
WDFY4_Q6ZS81_835_QWPDLEERMDEGDAAIMHPGVVCIMVR (UniProt Q6ZS81),-0.252,-0.485
WDR7_Q9Y4E6-2_959_QGWSQLAAMHCVMLPDLLGLDK (UniProt Q9Y4E6),-0.158,0.163
WSB1_Q9Y6I7_262_KLEGHHHDVVACDFSPDGALLATASYDTR (UniProt Q9Y6I7),-0.0429,0.00783
WDR26_Q9H7D7_316_CLYHNTK (UniProt Q9H7D7),0.135,-0.0391
XAB2_Q9HCS7_695_AIYSFCSQICDPR (UniProt Q9HCS7),0.278,0.149
WDR36_Q8NI36_470_LSCSTWNYQK (UniProt Q8NI36),-0.223,-0.0146
WDFY3_Q8IZQ1_1600_FGQFISSTLPTFAVCEK (UniProt Q8IZQ1),0.0647,-0.255
WDFY1_Q8IWB7_317_CGQAVCGK (UniProt Q8IWB7),0.00459,-0.207
WDR6_Q9NNW5_577_QGVTSVTCHGGYVYTTGR (UniProt Q9NNW5),-0.105,-0.0538
WDR26_Q9H7D7_259_IHVLSGYLMCSHAEDLR (UniProt Q9H7D7),0.0545,-0.000885
WDR75_Q8IWA0_306_LGATIEHISVSPAGDLFCTSHSDNK (UniProt Q8IWA0),0.102,0.192
WDR59_Q6PJI9_654_VIIQDIACLLPVHK (UniProt Q6PJI9),0.145,-0.0774
WWP2_O00308_838_SHTCFNR (UniProt O00308),-0.0998,0.118
WDR76_Q9H967_214_RENGIGCR (UniProt Q9H967),-0.26,-0.134

# Part of the list above in another layout.
Target | probe-labelled cysteine peptide fold change (10 µM) | probe-labelled cysteine peptide fold change (50 µM)
WDR36_Q8NI36_470_LSCSTWNYQK (UniProt Q8NI36) | -0.223 | -0.0146
WDFY3_Q8IZQ1_1600_FGQFISSTLPTFAVCEK (UniProt Q8IZQ1) | 0.0647 | -0.255
WDFY1_Q8IWB7_317_CGQAVCGK (UniProt Q8IWB7) | 0.00459 | -0.207
WDR6_Q9NNW5_577_QGVTSVTCHGGYVYTTGR (UniProt Q9NNW5) | -0.105 | -0.0538
WDR26_Q9H7D7_259_IHVLSGYLMCSHAEDLR (UniProt Q9H7D7) | 0.0545 | -0.000885
WDR75_Q8IWA0_306_LGATIEHISVSPAGDLFCTSHSDNK (UniProt Q8IWA0) | 0.102 | 0.192
WDR59_Q6PJI9_654_VIIQDIACLLPVHK (UniProt Q6PJI9) | 0.145 | -0.0774
